Here are results for three molecules from paper PMC3342958, “IDN2 and Its Paralogs Form a Complex Required for RNA–Directed DNA Methylation”.

The target in the assay is IDN2 XH domain, yeast two-hybrid bait (Arabidopsis thaliana). Description: two-hybrid; pGADT7 and pGBKT7 constructs co-transformed into yeast strain PJ694a; spot assay on SD-trp-leu-his with 5 mM to 20 mM 3-AT; HIS reporter.

Results are given in words; binding and its absence hold for the method and conditions named. A result given as binding can be weak or reduced; the word gives no strength. Tags and fused reporters may be left off the sequences shown.

B1: IDP1, yeast two-hybrid fusion (protein, UniProt Q9S9P3 1-634)
chain: MSISDEEAEISESEIEDYSETPYRLLRDGTYKVKVNGQLRCPFCAGKKKQDYKYKELYAHATGVSKGSATRSALQKANHLALAMFLENELAGYAEPVPRPPVVPPQLDETEPNPHNVYVWPWMGIVVNPLKEADDKELLLDSAYWLQTLSKFKPIEVNAFWVEQDSIVGVIAKFNGDWSGFAGATELEKEFETQGSSKKEWTERSGDSESKAYGWCARADDFESQGPIGEYLSKEGQLRTVSDISQKNVQDRNTVLEELSDMIAMTNEDLNKVQYSYNRTAMSLQRVLDEKKNLHQAFADETKKMQQMSLRHIQKILYDKEKLSNELDRKMRDLESRAKQLEKHEALTELDRQKLDEDKRKSDAMNKSLQLASREQKKADESVLRLVEEHQRQKEDALNKILLLEKQLDTKQTLEMEIQELKGKLQVMKHLGDDDDEAVQKKMKEMNDELDDKKAELEGLESMNSVLMTKERQSNDEIQAARKKLIAGLTGLLGAETDIGVKRMGELDEKPFLDVCKLRYSANEAAVEAATLCSTWQENLKNPSWQPFKHEGTGDGAEEVVDEDDEQLKKLKREWGKEVHNAVKTALVEMNEYNASGRYTTPELWNFKEGRKATLKEVITFISNDIKILKRKRT
Consider B1, for which the binding entry was “binds”.

B2: IDP2, yeast two-hybrid fusion (protein, UniProt F4JH53 1-635)
chain: MDISDEESEISESEIEEYSKTPYHLLRSETYYKVKVNGRLRCPFCVGKKKQDYKYKELHAHATGVSKGSATRSALQKSNHLALAKFLENDLAGYAEPLPRPPVVPPLLDETEPNPHNVYVWPWMGIVVNPLKETDDKELLLDSVYWLQTLSKFKPVEVNAFWVEQDSIVGVIAKFDSDWSGFAAATELEKEFETQGSCKKEWTERSGDSESKAYGWCARADDFQSQGPIGEYLSKEGTLRTVSDILQNNVQDRNTLLDVLSNMIDMTNEDLNKAQHSYNRTAMSLQRVLDEKKNLHQAFAEETKKMQQMSLRHIQRILYDKEKLRNELDRKMRDLESRAKQLEKHEALTELERQKLDEDKRKSDAMNKSLQLASREQKKADESVLRLVEEHQRQKEDALNKILLLEKQLDTKQTLEMEIQELKGKLQVMKHLGDDDDEAVQTKMKEMNDELDDKKAELEDLESMNSVLMTKERQSNDEIQAARQKMIAGLTGLLGAESDIGVKRMGELDEKPFLDVCKLRYSANEARVEAATLCSTWKENLKNPSWQPFKREGTGDGAEEVVDEDDEQLKKLKREWGKEVHNAVKAALVEMNEYNASGRYPTSELWNFKEGRKATLKEVITFISTDIKNLKRKRT
As to B2, the binding result is reported as “binds”.

B3: IDN2, yeast two-hybrid fusion (protein, UniProt Q8VZ79 1-647)
chain: MGSTVILSSDDEDSDISESEMDEYGDKMYLNLKGGKLKVRLSPQAFICPYCPNKKKTSFQYKDLLQHASGVGNSNSDKRSAKEKASHLALVKYLQQDLADSASEAEPSSKRQKNGNPIQDCDHDEKLVYPWKGIVVNIPTTKAQDGRSAGESGSKLRDEYILRGFNPTRVRPLWNYLGHSGTAIVEFNKDWNGLHNGLLFDKAYTVDGHGKKDWLKKDGPKLGLYGWIARADDYNGNNIIGENLRKTGDLKTIAELTEEEARKQELLVQNLRQLVEEKKKDMKEIEELCSVKSEELNQLMEEKEKNQQKHYRELNAIQERTMSHIQKIVDDHEKLKRLLESERKKLEIKCNELAKREVHNGTERMKLSEDLEQNASKNSSLELAAMEQQKADEEVKKLAEDQRRQKEELHEKIIRLERQRDQKQAIELEVEQLKGQLNVMKHMASDGDAEVVKEVDIIFKDLGEKEAQLADLDKFNQTLILRERRTNDELQEAHKELVNIMKEWNTNIGVKRMGELVTKPFVDAMQQKYCQQDVEDRAVEVLQLWEHYLKDSDWHPFKRVKLENEDREVEVIDDRDEKLRELKADLGDGPYNAVTKALLEINEYNPSGRYITTELWNFKADKKATLEEGVTCLLDQWEKAKRKRGMA
Take B3: the binding result is given as “no binding”.
